Results are given in words; binding and its absence hold for the method and conditions named. Some binding calls cover weakened binding; strength is not graded here.
What was measured:
[1] = molecular target: soluble SorCS2 (extracellular domain of SorCS2), immobilized on the Biacore chip (Homo sapiens in the sequence list; not stated for the assay) (UniProt Q96PQ0); experiment: SPR (BIAcore), as in FIG. 7
[2] = molecular target: soluble SorCS2 (extracellular domain of SorCS2), immobilized on the Biacore chip (Homo sapiens in the sequence list; not stated for the assay) (UniProt Q96PQ0); experiment: SPR (BIAcore), soluble SorCS2 immobilized on a CM5 chip, mature BDNF at 10 and 20 nM in solution
[3] = molecular target: soluble SorCS2 (extracellular domain of SorCS2), immobilized on the Biacore chip (Homo sapiens in the sequence list; not stated for the assay) (UniProt Q96PQ0); experiment: SPR (Biacore), CM5 chip coated with SorCS2

Protein sequences, listed by entry. Tags and fused reporters are not part of them. Lines headed by an entry give the natural chain unless they say otherwise; changes in a name come on top.
UniProt Q96PQ0: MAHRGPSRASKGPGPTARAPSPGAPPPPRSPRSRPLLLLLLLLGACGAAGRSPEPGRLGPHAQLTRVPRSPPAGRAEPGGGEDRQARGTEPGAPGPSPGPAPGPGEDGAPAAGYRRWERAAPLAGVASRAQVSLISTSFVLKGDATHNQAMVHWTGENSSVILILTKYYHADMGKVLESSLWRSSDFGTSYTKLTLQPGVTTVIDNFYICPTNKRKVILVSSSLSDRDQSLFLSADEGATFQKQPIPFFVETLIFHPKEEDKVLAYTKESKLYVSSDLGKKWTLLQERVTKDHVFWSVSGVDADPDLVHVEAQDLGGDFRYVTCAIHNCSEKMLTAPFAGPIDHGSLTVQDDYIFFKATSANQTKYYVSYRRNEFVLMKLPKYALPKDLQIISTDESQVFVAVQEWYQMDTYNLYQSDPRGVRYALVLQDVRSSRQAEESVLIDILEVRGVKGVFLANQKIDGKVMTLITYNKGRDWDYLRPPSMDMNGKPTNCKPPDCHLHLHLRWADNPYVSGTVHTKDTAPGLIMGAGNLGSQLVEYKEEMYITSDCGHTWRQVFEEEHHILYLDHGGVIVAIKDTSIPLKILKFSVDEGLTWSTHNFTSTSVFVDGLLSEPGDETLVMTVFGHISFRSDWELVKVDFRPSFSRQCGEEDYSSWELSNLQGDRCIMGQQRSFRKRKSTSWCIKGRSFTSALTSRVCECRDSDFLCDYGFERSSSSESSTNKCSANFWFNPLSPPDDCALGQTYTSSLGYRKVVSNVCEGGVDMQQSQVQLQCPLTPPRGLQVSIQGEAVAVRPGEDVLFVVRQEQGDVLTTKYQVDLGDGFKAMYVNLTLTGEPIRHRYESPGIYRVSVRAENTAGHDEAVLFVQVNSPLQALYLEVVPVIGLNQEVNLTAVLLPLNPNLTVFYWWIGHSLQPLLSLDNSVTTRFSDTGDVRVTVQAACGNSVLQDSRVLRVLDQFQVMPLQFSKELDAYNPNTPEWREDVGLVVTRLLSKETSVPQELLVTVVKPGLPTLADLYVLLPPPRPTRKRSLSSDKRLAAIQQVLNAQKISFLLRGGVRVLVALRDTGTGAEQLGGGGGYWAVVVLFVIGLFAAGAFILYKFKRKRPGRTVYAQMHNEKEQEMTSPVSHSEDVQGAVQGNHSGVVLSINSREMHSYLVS

Measured: binding

B1: mature BDNF (ligand)
chain: HSDPARRGELSVCDSISEWVTAADKKTAVDMSGGTVTVLEKVPVSKGQLKQYFYETKCNPMGYTKEGCRGIDKRHWNSQCRTTQSYVRALTMDSKKRIGWRFIRIDTSCVCTLTIKRGR
binds: [1] | [2] | [3]
